# Experimental data: US20200108089A1, “Gemcitabine Derivatives for Cancer Therapy” (Suzhou Sirnaomics Biopharmaceuticals Co., Ltd., priority 2017, published 2020)
# At least one peptide structure holds a part that was inferred or is arguable (an end, a ring closure or a residue). Bridge positions count the residues as written; N and C are the ends. Ends that are not written are not given here. I, II: the chains in the order shown.
# Experiment: Particle size and Zeta potential of GEM-HKP/siRNA nanoparticles (Brookhaven 90Plus Nanosizer)
# Type: physicochemical
# Details: carrier mixed with scrambled siRNA at 4:1 ratio
substance,measurement,value
"I: KHHHKHHHKHHHKHHHKKKK-NH2 / II: KHHHKHHHKHHHKHHHK / III: KHHHKHHHKHHHKHHHK / IV: KHHHKHHHKHHHKHHHK (amide I:18-IV:C, I:19-III:C, I:20-II:C) [HKP]","Size (nm), average particle size",125 nm
same,z-potential (mV),26 mV
